Experimental data: PubChem BioAssay AID602196 (INSERM, 2012)
In all, the deposit lists about 23,000 reagents; shown is a random part of them. 455 of all reagents (2%) count as active. 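Active includes both protection and sensitisation; some change values fall well beyond the stated -50 to +50 range.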 Reagents against one gene are numbered here. Not given: the amount of reagent.

Screen: 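Genes whose knock-down alters cisplatin killing of lung cancer cells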
Cell system: human A549 lung cancer cells
Knock-down reagent: siRNA pair against human genes
Time to read-out: 48 h transfection before cisplatin; time from cisplatin to read-out not stated
Treatment: cisplatin at a dose killing half of control-siRNA cells; exact dose and duration not given
Measured: 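Cisplatin cell death as a shift from the 50% death seen with control siRNA; siRNAs toxic or growth-blocking alone scored 0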
Reading the numbers: two-siRNA summed score (-2 to +2): higher = both siRNAs protect from cisplatin killing; -2 means both sensitise; mean protection from cisplatin (shift in death) and protection from cisplatin (shift in death), siRNA C and protection from cisplatin (shift in death), siRNA D: higher = protection from cisplatin killing
Active means: 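Each siRNA scores 0 if harmful alone by LDH or WST-1, otherwise +1 if it reduces and -1 if it increases cisplatin killing; a gene is active when both siRNAs agree (sum +2 or -2)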
Meaning of the calls: active = both siRNAs shift cisplatin killing the same way; inactive = no consistent shift, or siRNA harmful alone

gene | reagent no. | two-siRNA summed score (-2 to +2) | mean protection from cisplatin (shift in death) (%) | protection from cisplatin (shift in death), siRNA C (%) | protection from cisplatin (shift in death), siRNA D (%) | Outcome
GNAZ | 1 | 0 | -5.9 | -0.4 | -11.5 | inactive
HEMGN | 1 | 0 | 14.1 | 17.7 | 10.5 | inactive
LOC400756 (retired record) | 1 | 0 | 2.9 | -8.8 | 14.6 | inactive
SNAPC4 | 1 | 0 | 0.8 | -10.9 | 12.6 | inactive
LOC388454 | 1 | 0 | -6.3 | -4.9 | -7.8 | inactive
SAMSN1 | 1 | 0 | 7.3 | 10.3 | 4.3 | inactive
SAMSN1 | 2 | 1 | 7.6 | 19.1 | -3.9 | inactive
NAA38 | 1 | 0 | 10.4 | 0.9 | 20 | inactive
GPATCH1 | 1 | 0 | 12 | 0.3 | 23.7 | inactive
ALB | 1 | 0 | 6.5 | 5 | 8.1 | inactive
ASB11 | 1 | 1 | 18.7 | 20 | 17.4 | inactive
SLC35A3 | 1 | 0 | 14.5 | 15.2 | 13.9 | inactive
TIPIN | 1 | 0 | 9.1 | -2.5 | 20.6 | inactive
PREB | 1 | 0 | 14.9 | 15.2 | 14.5 | inactive
LSM2 | 1 | 0 | -8.6 | 4.1 | -21.3 | inactive
LOC285735 | 1 | 0 | 8.7 | 12 | 5.3 | inactive
PCP2 | 1 | 0 | 11.5 | 11.6 | 11.4 | inactive
AK7 | 1 | 0 | 1.3 | 7.4 | -4.8 | inactive
ENPP6 | 1 | 0 | 1.6 | 2.5 | 0.8 | inactive
LOC388214 | 1 | 0 | 15 | 19.3 | 10.6 | inactive
THAP12 | 1 | -1 | -6.3 | -14.9 | 2.4 | inactive
WDR70 | 1 | 0 | -1.4 | -14.4 | 11.6 | inactive
ZDHHC5 | 1 | 1 | 10.2 | -2.6 | 23.1 | inactive
LOC389385 | 1 | 0 | 3.1 | 3.5 | 2.6 | inactive
LRATD2 | 1 | 0 | 10.2 | 12.8 | 7.7 | inactive
STXBP1 | 1 | 1 | 11.6 | 10.3 | 13 | inactive
SDF2L1 | 1 | 0 | 6.6 | 4.7 | 8.6 | inactive
AFAP1 | 1 | 0 | -1.6 | -1.6 | -1.5 | inactive
UBE2U | 1 | 0 | 9.5 | 2.7 | 16.4 | inactive
PIWIL4 | 1 | 0 | 9.4 | 14.6 | 4.1 | inactive
AGMAT | 1 | 0 | 4.3 | 11.8 | -3.2 | inactive
LOC440305 | 1 | 0 | 5.4 | 0.5 | 10.2 | inactive
PIK3C2A | 1 | 0 | -0.6 | -4.4 | 3.2 | inactive
EOLA1 | 1 | 0 | 7.3 | -4.4 | 19 | inactive
MAGOH | 1 | -1 | -14.3 | -11.4 | -17.1 | inactive
PAG1 | 1 | 0 | 8.8 | 8.6 | 9.1 | inactive
CRYBG1 | 1 | 1 | 17.4 | 9.6 | 25.2 | inactive
LOC441378 | 1 | 0 | 0.5 | 6.2 | -5.2 | inactive
LINC00667 | 1 | 0 | 17.1 | 25.7 | 8.5 | inactive

Sorted by “protection from cisplatin (shift in death), siRNA C (%)” (low to high): some entries from above.
gene | reagent no. | two-siRNA summed score (-2 to +2) | mean protection from cisplatin (shift in death) (%) | protection from cisplatin (shift in death), siRNA C (%) | protection from cisplatin (shift in death), siRNA D (%) | Outcome
THAP12 | 1 | -1 | -6.3 | -14.9 | 2.4 | inactive
WDR70 | 1 | 0 | -1.4 | -14.4 | 11.6 | inactive
ZDHHC5 | 1 | 1 | 10.2 | -2.6 | 23.1 | inactive
LOC389385 | 1 | 0 | 3.1 | 3.5 | 2.6 | inactive
LRATD2 | 1 | 0 | 10.2 | 12.8 | 7.7 | inactive

More records:
gene | reagent no. | two-siRNA summed score (-2 to +2) | mean protection from cisplatin (shift in death) (%) | protection from cisplatin (shift in death), siRNA C (%) | protection from cisplatin (shift in death), siRNA D (%) | Outcome
LOC402516 | 1 | 0 | 15.3 | 19.2 | 11.4 | inactive
ZNF605 | 1 | 0 | 4.9 | 3.9 | 5.9 | inactive
LOC440176 | 1 | 0 | 13.4 | 13.8 | 12.9 | inactive
KCTD1 | 1 | 1 | 12.1 | 5.5 | 18.6 | inactive
LAPTM4B | 1 | 0 | -0.2 | -6.9 | 6.5 | inactive
BMP8B | 1 | 0 | -13.6 | -2 | -25.1 | inactive
LTC4S | 1 | 0 | 12.9 | 22.6 | 3.2 | inactive
BROX | 1 | 0 | 8.1 | 14.8 | 1.4 | inactive
LOC440698 | 1 | 1 | 8.1 | 9.9 | 6.4 | inactive
DTWD2 | 1 | 0 | 9.7 | 9.2 | 10.2 | inactive
CHRNA6 | 1 | 0 | 7.6 | 10.4 | 4.7 | inactive
FCGR3A | 1 | -1 | -8.3 | -9.7 | -6.8 | inactive
ARL5C | 1 | 1 | 12.9 | 17.4 | 8.5 | inactive
C6orf47 | 1 | 0 | -2.6 | -0.7 | -4.6 | inactive
TNFRSF10D | 1 | -1 | -3.6 | 10 | -17.2 | inactive
COPS5 | 1 | -1 | -6.7 | 6.7 | -20.1 | inactive
FTSJ1 | 1 | 0 | -3.6 | -3.3 | -3.8 | inactive
PPIAP35 | 1 | 1 | 10.2 | 20.4 | 0 | inactive
EGFL8 | 1 | 1 | 8.7 | 8.5 | 8.8 | inactive
PRRG3 | 1 | 0 | -3.7 | -0.3 | -7.1 | inactive
PON2 | 1 | -1 | -28.4 | -48.6 | -8.1 | inactive
TCF7L2 | 1 | -1 | -10.7 | -32.9 | 11.6 | inactive
LOC440451 | 1 | 0 | 2.6 | 8 | -2.8 | inactive
OXER1 | 1 | 0 | 8.6 | -3.8 | 21 | inactive
GRIP2 | 1 | 1 | 13.6 | 7.6 | 19.7 | inactive
LOC402523 | 1 | 1 | 14.4 | 24.4 | 4.5 | inactive
SMAD5 | 1 | -1 | -6.5 | -23.1 | 10 | inactive
TRIM40 | 1 | 1 | 18.5 | 22 | 15 | inactive
UCHL1 | 1 | 0 | 0.1 | -10.3 | 10.5 | inactive
RNMT | 1 | 0 | -9.7 | -6 | -13.5 | inactive
CMIP | 1 | 0 | 9.7 | 8.3 | 11.1 | inactive
EGFL7 | 1 | 0 | 22.2 | 8.6 | 35.7 | inactive
LOC145414 | 1 | 0 | -0.2 | -5.2 | 4.8 | inactive
PGLYRP2 | 1 | 0 | -1.8 | 15.9 | -19.5 | inactive
